Experimental findings from the supplement of paper PMC7889204 are described below.

SMILES strings stand for the structures. Structures can show the parent of a compound that is named as a salt. This is one part of the list. Many values rest on one well or one pass, so single values are uncertain.

This assay deals with C6. As to the kind of experiment: cell mass (Coomassie absorbance) after combination of library compound with HMBA, relative to vehicle control (fraction); higher = more remaining cells (less growth inhibition).
With `Cc1cc(O)c2c(c1)C(=O)c1cccc(O)c1C2=O` [Chrysophanic acid] + CC(=O)NCCCCCCNC(C)=O [hexamethylene bisacetamide], the cell mass turned out to be 0.502.
The same measure for `Cn1c(Nc2ccc(C(F)(F)F)cc2)nc2cc(Oc3ccnc(-c4ncc(C(F)(F)F)[nH]4)c3)ccc21` + CC(=O)NCCCCCCNC(C)=O [hexamethylene bisacetamide]: 0.656.
To `COc1ccc2c3n(c(=NC(=O)c4cccnc4)nc2c1OC)CCN3` + CC(=O)NCCCCCCNC(C)=O [hexamethylene bisacetamide] belongs 0.367; to `COc1cc(Nc2ncc3c(n2)-c2ccc(Cl)cc2C(c2c(F)cccc2OC)=NC3)ccc1C(=O)O` + CC(=O)NCCCCCCNC(C)=O [hexamethylene bisacetamide], 0.332; to `CC(C)[C@H](O)C(=O)N[C@@H](C)C(=O)N[C@@H]1C(=O)N(C)CCc2ccccc21` [Semagacestat] + CC(=O)NCCCCCCNC(C)=O [hexamethylene bisacetamide], 0.609.
The same measure for `CNC(=O)Nc1ccc(-c2nc(N3CC4CCC(C3)O4)c3cnn(C4CCC5(CC4)OCCO5)c3n2)cc1` + CC(=O)NCCCCCCNC(C)=O [hexamethylene bisacetamide]: 0.462; for `CC(=O)O[C@]1(C(C)=O)CC[C@H]2[C@@H]3C=C(C)C4=CC(=O)CC[C@]4(C)[C@H]3CC[C@@]21C` [Megestrol Acetate] + CC(=O)NCCCCCCNC(C)=O [hexamethylene bisacetamide]: 0.491.
As to `Cc1cccc(-c2nn3c(c2-c2ccnc4ccc(C(N)=O)cc24)CCC3)n1` + CC(=O)NCCCCCCNC(C)=O [hexamethylene bisacetamide], the cell mass was 0.808.
To `COc1cc(Nc2ncc(F)c(Nc3ccc4c(n3)NC(=O)C(C)(C)O4)n2)cc(OC)c1OC` [R406(free base)] + CC(=O)NCCCCCCNC(C)=O [hexamethylene bisacetamide] belongs 0.267; to `CC(C)C[C@H](NC(=O)CNC(=O)c1cc(Cl)ccc1Cl)B1OC(=O)C(CC(=O)O)(CC(=O)O)O1` + CC(=O)NCCCCCCNC(C)=O [hexamethylene bisacetamide], 0.165.
The same measure for `O=C1NC(=O)/C(=C\c2ccc3nccnc3c2)S1` + CC(=O)NCCCCCCNC(C)=O [hexamethylene bisacetamide]: 0.489; for `CC(C)C[C@H](NC(=O)CNC(=O)c1cc(Cl)ccc1Cl)B(O)O` + CC(=O)NCCCCCCNC(C)=O [hexamethylene bisacetamide]: 0.264.
Regarding `CCc1c2c(nc3ccc(OC(=O)N4CCC(N5CCCCC5)CC4)cc13)-c1cc3c(c(=O)n1C2)COC(=O)[C@]3(O)CC` [Irinotecan] + CC(=O)NCCCCCCNC(C)=O [hexamethylene bisacetamide], the cell mass worked out at 0.197.
The same measure for `O=C(Nc1cccc(Cl)c1)Nc1ncc(CCNc2ncnc3ccsc23)s1` [SNS-314 Mesylate] + CC(=O)NCCCCCCNC(C)=O [hexamethylene bisacetamide]: 0.308; for `Nc1ncnc2c1c(-c1cnc3[nH]ccc3c1)nn2C1CCCC1` + CC(=O)NCCCCCCNC(C)=O [hexamethylene bisacetamide]: 0.242; for `CC(C)(C(=O)NCC(F)(F)C(F)(F)F)C(=O)N[C@@H]1C(=O)Nc2ccccc2-c2ccccc21` + CC(=O)NCCCCCCNC(C)=O [hexamethylene bisacetamide]: 0.918.
The same measure for `O=C(c1ccc(/C=C/c2n[nH]c3ccccc23)cc1)N1CCNCC1` + CC(=O)NCCCCCCNC(C)=O [hexamethylene bisacetamide]: 0.705; for `COc1cccc(Nc2c(C(N)=O)cnc3c(C)cc(S(=O)(=O)c4cccc(C(=O)N(C)C)c4)cc23)c1` + CC(=O)NCCCCCCNC(C)=O [hexamethylene bisacetamide]: 0.403.
On to `Cc1ccccc1-n1c(Cn2nc(-c3cccc(O)c3)c3c(N)ncnc32)nc2cccc(C)c2c1=O` + CC(=O)NCCCCCCNC(C)=O [hexamethylene bisacetamide], for which the cell mass came out at 0.499.
The same measure for `Cc1nc(N)sc1-c1ccnc(Nc2ccc(N3CCOCC3)cc2)n1` + CC(=O)NCCCCCCNC(C)=O [hexamethylene bisacetamide]: 0.238; for `Cn1cncc1[C@@](N)(c1ccc(Cl)cc1)c1ccc2c(c1)c(-c1cccc(Cl)c1)cc(=O)n2C` [Tipifarnib] + CC(=O)NCCCCCCNC(C)=O [hexamethylene bisacetamide]: 0.546.
